Source: paper PMC12045350
These are yes or no findings as the source states them, for the method shown. Some entries that bind do so weakly or less than the wild type.

Chains of the proteins cited; added tags and fusions are not shown. Residues count along the entry.
UniProt P49792, residues 2503-2893: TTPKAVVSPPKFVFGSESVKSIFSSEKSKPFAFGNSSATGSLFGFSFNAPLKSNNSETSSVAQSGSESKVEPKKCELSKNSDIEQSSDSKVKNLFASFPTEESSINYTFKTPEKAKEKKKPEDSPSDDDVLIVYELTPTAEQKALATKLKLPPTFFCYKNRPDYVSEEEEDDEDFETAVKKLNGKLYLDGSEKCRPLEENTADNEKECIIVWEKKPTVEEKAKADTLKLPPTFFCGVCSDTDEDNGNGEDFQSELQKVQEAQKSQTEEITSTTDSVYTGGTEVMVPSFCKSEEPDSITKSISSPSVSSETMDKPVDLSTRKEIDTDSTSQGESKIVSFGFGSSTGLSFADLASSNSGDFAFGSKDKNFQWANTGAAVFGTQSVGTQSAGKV

Biological target: GST-Nup358 (res. 2503–2893) (UniProt P49792)
Test: pull-down; GST-Nups on glutathione beads; 3 μM importin β, 1 h, 4°C; 20 mM HEPES pH 7.0, 150 mM KOAc, 2 mM Mg(OAc)2, 1 mM dithiothreitol, 0.1% Tween; then 10 μM MBP-αIBB, or 10 μM Ran-GTP, or 10 μM Ran-GTP plus 30 μM RanBP1 for 1 h at 4°C; SDS-PAGE, densitometry; both purified

| binding | Substance |
| --- | --- |
| binds | importin β (from UniProt Q14974 1-876) |
| binds | importin β:αIBB (importin β with MBP-αIBB, pull-down) (from UniProt Q14974 1-876; P52292 2-60) (complex) |
